PubChem BioAssay AID1259425 | University of Nebraska Medical Center – 2018
Assay: 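Find knockdowns that reproduce the gene expression pattern seen when KSR1 is lost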 (primary screen). System: HCT116 human colon cancer cells. Reagent: siRNA pool against human genes, 50 nM siRNA. Measurement: 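After 50 nM siRNA pool, branched-DNA assay measures six marker transcripts per well, minus blank, normalised to the geometric mean of two housekeeping transcripts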. Reading the numbers: BNIP3L mRNA: higher = more BNIP3L transcript after knockdown.
The deposit covers about 14,000 reagents; shown is an unselected part. A reagent listed more than once was tested more than once; the source does not tell the runs apart. Further read-outs or replicates are left out here. Not given: the time to read-out.

HOXB5 | BNIP3L mRNA, set 1: 0.0953
LRRC8E | BNIP3L mRNA, set 1: 0.128
RAD9A | BNIP3L mRNA, set 1: 0.135
VAMP7 | BNIP3L mRNA, set 1: 0.0658
TMEM50B | BNIP3L mRNA, set 1: 0.145
ICE2 | BNIP3L mRNA, set 1: 0.0912

Ordered by “BNIP3L mRNA, set 1” (lowest first): some entries from above.
LRRC8E | BNIP3L mRNA, set 1: 0.128
RAD9A | BNIP3L mRNA, set 1: 0.135

Additional results follow:
ACY3 | BNIP3L mRNA, set 1: 0.159
EVC | BNIP3L mRNA, set 1: 0.0678
SRMS | BNIP3L mRNA, set 1: 0.217
GPR6 | BNIP3L mRNA, set 1: 0.501
STOML2 | BNIP3L mRNA, set 1: 0.158
LIME1 | BNIP3L mRNA, set 1: 0.127
MPND | BNIP3L mRNA, set 1: 0.286
FZD5 | BNIP3L mRNA, set 1: 0.184
SNX29 | BNIP3L mRNA, set 1: 0.186
ADRA1A | BNIP3L mRNA, set 1: 0.118
ADRA1A | BNIP3L mRNA, set 1: 0.109
CETP | BNIP3L mRNA, set 1: 0.128
DPPA4 | BNIP3L mRNA, set 1: 0.109
